Data reported in US9744222B2 (Circassia Limited, priority 2007, dated 2017).
Where no end group is shown, it is not given here.

Test: peptide synthesis
Settings: whole synthesis

Row | Sequence | purity (crude or final not stated)
1 | VDFKGELAMRNIEAR | 82.1%
2 | VDFKGELAMRNIE | 79.8%
3 | KVLAPAFKKELER | 90.8%
